The exact form of at least one protein or probe is not confirmed.
Test system: PuPuf4 (Pythium ultimum)
Test: EMSA
Settings: EMSA: Beyotime EMSA/Gel-Shift Binding Buffer, 50 ng RNA, 25 C 30 min, 1% agarose gel; recombinant protein; protein details: GST (N-terminal, pGEX-4T-2); label: FAM

GCCCAGUGCUCUGAAUGUCAAAGUGAAGAGAUUCACCAAGCGGCGGGUAAACGCG [H68 rRNA]
binding result: binds

From paper PMC12324679
